Record: PubChem BioAssay AID743454 (Peter MacCallum Cancer Centre, 2014)
Shown is a random part of about 18,000 reagents. Of all reagents, 450 (2.5%) got an active call. 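Single biological run; no consistent viability z cut-off exists, so the class columns, not z-scores, define the calls.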

Purpose: 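Knock-downs lowering viability or raising caspase 3/7 activity in vorinostat-treated resistant cells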 (primary screen)
Cell system: human HCT116-VR colon cancer cells, selected for vorinostat resistance
Knock-down reagent: siRNA pool against human genes, 40 nM siRNA pool
Timing: vorinostat for 24 h, read-out about 72 h after transfection
Challenge: vorinostat at 2.5 µM final
Detection: 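Two measures, CellTiter-Fluor viability and luminescent caspase 3/7 activity, each as fold change against same-plate mock wells, mean of duplicates, then screen-wide robust z-score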
Direction: viability robust z-score: higher = more viable cells than screen typical; caspase robust z-score: higher = more caspase 3/7 activity than screen typical
Rule for the call: 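a knock-down is a hit when classed RV1 or RV2 for lowered viability, or CA1 or CA2 for caspase activation; those lethal without drug were dropped; hits were retested singly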

gene | viability hit class | caspase hit class | viability robust z-score | caspase robust z-score | activity call
APOL1 | no change | no change | -0.22 | 4.34 | inactive
TXLNG | no change | no change | -0.44 | -0.02 | inactive
PARD6A | no change | no change | -0.24 | 0.1 | inactive
ELP2 | no change | no change | -1.94 | -0.22 | inactive
PAX7 | no change | no change | -0.96 | 0.76 | inactive
CLEC1A | no change | no change | 1.09 | 0.09 | inactive
LCE4A | no change | no change | 0.64 | 0.57 | inactive
XPNPEP3 | no change | no change | -0.04 | 0.11 | inactive
OR1J2 | no change | no change | 0.14 | 0.3 | inactive
HOOK2 | no change | no change | -0.33 | -0.44 | inactive
ANAPC10 | no change | no change | -1.15 | -0.07 | inactive
ZNF714 | no change | no change | 0.84 | 0.39 | inactive
STXBP2 | no change | no change | -0.4 | 0.59 | inactive
CCL2 | no change | no change | -0.4 | -0.52 | inactive
SLC9D1 | no change | no change | -0.12 | 1.61 | inactive
GOLGA5 | no change | no change | -0.12 | -0.2 | inactive
CNOT2 | no change | no change | -0.78 | 2.42 | inactive
SOAT2 | no change | no change | -1.05 | -0.62 | inactive
KRTAP4-2 | no change | no change | 0.32 | 0.76 | inactive
SLFN5 | no change | no change | -0.38 | 0.94 | inactive
SGCD | no change | no change | 1.2 | 0.23 | inactive
TALDO1 | no change | no change | 0.57 | -0.74 | inactive
EPM2AIP1 | no change | no change | -0.48 | -0.45 | inactive
UBA1 | no change | no change | -0.08 | 1.21 | inactive
SH3YL1 | no change | no change | 0.34 | 0.18 | inactive
ACAT2 | no change | no change | -1.13 | 1.25 | inactive
FBXO44 | no change | no change | -1.38 | 0.74 | inactive
VMA22 | no change | no change | -0.12 | 1.28 | inactive
GPR155 | no change | no change | 0.74 | -0.57 | inactive
CLN3 | no change | no change | 1.14 | 0.2 | inactive
PLAT | no change | no change | 0.69 | -0.48 | inactive
STK24 | no change | no change | 0.26 | -0.59 | inactive
KCNJ2 | no change | no change | -1.47 | 0.12 | inactive
RNF20 | no change | no change | 0.14 | 1.34 | inactive

Look-ups from the list:
EPM2AIP1, activity call: inactive
Result of STK24 in “caspase robust z-score”: -0.59
For “viability robust z-score”, TALDO1 has 0.57
Value for SLFN5 under “caspase hit class”: no change
For “viability robust z-score”, ACAT2 has -1.13

Further entries follow.
gene | viability hit class | caspase hit class | viability robust z-score | caspase robust z-score | activity call
DNM3 | no change | no change | -0.12 | -0.28 | inactive
GASK1B | no change | no change | 0.09 | -0.52 | inactive
ATP5F1B | no change | no change | 1.22 | 0.72 | inactive
RDH16 | no change | no change | -1.11 | -1.16 | inactive
OR9I1 | no change | no change | -1.04 | -1.22 | inactive
NEGR1 | no change | no change | 0.92 | -0.56 | inactive
NR4A2 | no change | no change | 0.18 | 2 | inactive
PSMD7 | no change | no change | -3.31 | 3.82 | inactive
H2AC7 | no change | no change | -1.46 | 0.03 | inactive
ZNF618 | no change | CA1 (caspase activation) | 1.2 | 5.77 | active
RAB17 | no change | no change | -0.14 | 1.88 | inactive
BLK | no change | no change | 0.55 | 3.17 | inactive
PKN1 | no change | no change | 0.52 | 0 | inactive
ZNF707 | no change | no change | 0.39 | -0.92 | inactive
SLC1A7 | no change | no change | 0.08 | 0.08 | inactive
SUPT16H | no change | no change | 0.92 | -0.45 | inactive
EIF2AK3 | no change | no change | 0.65 | -0.2 | inactive
TIMP2 | no change | no change | 0.28 | 0.06 | inactive
CENPBD1P | no change | no change | 0.01 | -0.71 | inactive
NR1I2 | no change | no change | 0.4 | -0.46 | inactive
PGM2 | no change | no change | 0.09 | -0.64 | inactive
SRPRB | no change | no change | 0.43 | 0.12 | inactive
VPS25 | no change | no change | 1.44 | -0.28 | inactive
